In PubChem BioAssay AID540335 (Broad Institute, 2011):
Among all 1,300 compounds or so, about 270 (21%) were called active.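 Rule for the calls: active = dose-dependent rise or fall in viability, either side of zero, with half-maximal concentration at or below a set limit; inconclusive = flat curve at 30 to 70% viability loss, or poor fit; inactive = flat within 30% either way, or potency beyond limit.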 The list shows a part of the results. Results with a measured potency or affinity are listed apart.

Test: A375 melanoma cell viability reduction, dose response, counter-screen for MITF modulator project, cherry-pick samples, set 2 (AID 540335);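 note: A375 human melanoma cells which do not depend on MITF; 0% = median of neutral control wells and 100% = double that signal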
Settings: CellTiter-Glo ATP luminescence, 24 h; at 35 µM (top of the series)

SMILES | activity change, negative = decreased viability
COc1ccccc1NS(=O)(=O)c1cc(NC(=O)c2ccc(Cl)nc2)ccc1Cl | inactive: -3.13%
CC(=O)N(C1CC(C)C(C#N)(C#N)C1(C#N)C#N)N(C)C (stereo not drawn) | inactive: 51.1%
CCCCN=C(C)c1c(O)c2ccccc2oc1=O | inactive: 9.28%
CCN(CC)CCC(=O)N1C/C(=C/c2ccccc2)C(=O)/C(=C\c2ccccc2)C1 | inactive: 71.7%
CCOc1cccc(C(=O)NC2=NCCS2)c1 | inactive: 1.86%
O=C(N/N=C/c1ccc([N+](=O)[O-])s1)c1ccccc1Br | inactive: -17.8%
CC1CCCC(C)N1CCCNC(=O)c1cc2c(s1)-c1ccccc1OC2 (stereo not drawn) | inactive: 2.66%
Cc1ccc2oc(C(Cl)(Cl)Cl)cc(=O)c2c1 | inactive: -16.5%
C/C(=N\NC(=O)COc1ccccc1-c1ccccc1)c1ccccn1 | inactive: -22.8%
Cc1ccc(C2=NN(C(=O)CCl)C(c3cccs3)C2)o1 (stereo not drawn) | inactive: 17.7%
Cn1cccc1C(=O)NC(=O)COC(=O)c1ccc(S(C)(=O)=O)c([N+](=O)[O-])c1 | inactive: 11.1%
O=S(=O)(c1ccc(F)cc1)c1snnc1-c1ccccc1 | inactive: -41.1%
O=C(Nc1cnc2ccccn2c1=O)c1ccc(F)cc1 | inactive: 4.12%
COc1ccc(Cn2c(-c3ccc(C)cc3)c[n+]3ccccc23)cc1 | inactive: -16.4%
CC1=C/C(=N\NC(=S)Nc2cccnc2)CC(C)(C)C1 | inactive: -15.5%
Cc1cc(C(=O)COc2cccnc2[N+](=O)[O-])c(C)n1-c1ccccc1 | inactive: -0.063%
Cc1cc(C)c2ccc(N)nc2c1O | inactive: -31.2%
CC1(C)CC(=O)c2cnc(N3CCc4ccccc43)nc2C1 | inactive: 6.75%
CSc1nc(N)n2nc(-c3ccc(Cl)cc3)cc2n1 | inactive: -0.632%
CC(C)c1ccc(/C=C2\SC(=S)N(CCC(=O)N3CCCCC3CCO)C2=O)cc1 (stereo not drawn) | inactive: 5.77%
Cc1ccc(OCCCCN2CCCCC2)c(Br)c1 | inactive: 3.68%
C=C1C(=O)C2=CC1CCC(=O)C1(C)CCC(OC(C)=O)C(C)(C)C1CC2O (stereo not drawn) | inactive: 25.9%
CC(C)(C)c1ccc(-c2noc(CCC(=O)NCc3ccco3)n2)cc1 | inactive: -11.9%
C=CCNC(=O)Cn1nnc(-c2ccc(-c3ccc(OC)cc3)cc2)n1 | inactive: 4.23%
Cc1cc(C)c2sc(N(CCCN(C)C)C(=O)COc3ccc(Cl)cc3)nc2c1 | inactive: -86.6%
Cc1cc(/C(N)=N/OC(=O)Nc2ccc(Cl)cc2)no1 | inactive: 13.2%
COc1ccc(C(=O)C(CN2CCOCC2)c2ccccc2)cc1 (stereo not drawn) | inactive: -14.1%
Cc1ccc(-c2noc(-c3ccno3)n2)cc1 | inactive: 11.5%

Pulled one by one from the entries so far:
SMILES | activity change, negative = decreased viability
Cc1ccc2oc(C(Cl)(Cl)Cl)cc(=O)c2c1 | inactive: -16.5%
C/C(=N\NC(=O)COc1ccccc1-c1ccccc1)c1ccccn1 | inactive: -22.8%
